Assay results reported in patent US20170296524A1.
These are yes or no findings as the source states them, for the method shown. For some of these results: Binding seen in cells or lysates may run through a third protein. Some binding calls cover weakened binding; strength is not graded here. Where a sequence is shown, tags or fusion partners need not be part of it.

Tests used:
[1] = target: T1, MCT1 (monocarboxylate transporter 1), endogenous (human), P53985; test: co-immunoprecipitation; conditions: remark: other sources report otherwise
T1 chain: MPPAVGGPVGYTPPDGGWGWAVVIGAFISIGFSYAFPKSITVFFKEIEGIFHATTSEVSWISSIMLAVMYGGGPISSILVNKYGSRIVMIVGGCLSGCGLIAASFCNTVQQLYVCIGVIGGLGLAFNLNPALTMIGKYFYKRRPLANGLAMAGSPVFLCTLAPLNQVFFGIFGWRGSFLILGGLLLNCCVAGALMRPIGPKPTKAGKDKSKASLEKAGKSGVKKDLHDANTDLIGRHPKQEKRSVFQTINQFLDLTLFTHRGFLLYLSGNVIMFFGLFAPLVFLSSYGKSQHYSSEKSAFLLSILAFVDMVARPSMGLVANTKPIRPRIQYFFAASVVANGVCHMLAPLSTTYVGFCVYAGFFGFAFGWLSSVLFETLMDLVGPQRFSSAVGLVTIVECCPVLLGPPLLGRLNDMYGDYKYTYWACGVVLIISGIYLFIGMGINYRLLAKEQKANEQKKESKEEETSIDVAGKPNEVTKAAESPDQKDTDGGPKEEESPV

[2] = target: T1, MCT1 (monocarboxylate transporter 1), …; test: co-immunoprecipitation and pull-downs (heading of FIG. 2); conditions: remark: other sources report otherwise
[3] = target: T1, MCT1 (monocarboxylate transporter 1), …; test: immunoprecipitation with CRBN-specific antibody from HEK 293T lysate, Western blot; conditions: remark: other sources report otherwise
[4] = target: T1, MCT1 (monocarboxylate transporter 1), …; test: Streptavidin-bead precipitation of Strep-Flag tagged CRBN from HEK 293T cells; conditions: remark: other sources report otherwise
[5] = target: Cereblon (CRBN), human, wild type, without tag (endogenous or expressed from plasmid) (human) (UniProt Q96SW2); test: GST pull-down in MM1.S whole cell lysate, Western blot for CRBN
[6] = target: Cereblon (CRBN), human, wild type, without tag (endogenous or expressed from plasmid) (human) (UniProt Q96SW2); test: GST pull-down of fragments in MM1S whole cell extracts, immunoblot
[7] = target: Cereblon (CRBN), human, wild type, without tag (endogenous or expressed from plasmid) (human) (UniProt Q96SW2); test: GST pull-down with the C-terminal fragment from lysates of CRBN-/- HEK 293T cells re-expressing CRBN
[8] = target: T2, Cereblon (CRBN), human, wild type, without tag (endogenous or expressed from plasmid) (human), Q96SW2; test: FLAG immunoprecipitation from HEK293T cells, immunoblot (FIG. 13G); conditions: remark: other sources report otherwise
T2 chain: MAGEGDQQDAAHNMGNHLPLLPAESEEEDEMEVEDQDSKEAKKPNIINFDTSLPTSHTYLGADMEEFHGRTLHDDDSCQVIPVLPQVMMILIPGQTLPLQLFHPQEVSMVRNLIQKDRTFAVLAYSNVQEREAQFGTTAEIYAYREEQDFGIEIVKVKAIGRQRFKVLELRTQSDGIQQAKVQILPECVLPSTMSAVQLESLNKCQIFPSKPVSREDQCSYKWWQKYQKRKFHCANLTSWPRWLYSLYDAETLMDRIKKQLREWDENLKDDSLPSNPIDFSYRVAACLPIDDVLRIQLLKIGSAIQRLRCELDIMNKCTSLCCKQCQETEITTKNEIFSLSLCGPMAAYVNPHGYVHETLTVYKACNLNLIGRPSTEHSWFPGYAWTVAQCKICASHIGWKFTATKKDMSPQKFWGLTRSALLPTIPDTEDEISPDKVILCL

[9] = target: T2, Cereblon (CRBN), human, wild type, …; test: heading of FIG. 16: FLAG immunoprecipitation from HEK293T cells (16A) and GST-CRBN pull-down (16B); conditions: remark: other sources report otherwise
[10] = target: T3, in vitro-translated, 35S-labeled MCT1 (human), P53985; test: pull-down of recombinant GST-CRBN with in vitro-translated 35S-labeled protein, autoradiography (FIG. 16B); conditions: remark: other sources report otherwise
T3 chain: T1 chain

B1: Cereblon (CRBN), human, wild type, without tag (endogenous or expressed from plasmid), Q96SW2 1-442 (protein, UniProt Q96SW2 1-442, looked up)
chain: T2 chain
For B1, the binding [1] was “binds”, the binding [2] was “binds” and the binding [3] was “binds”.

B2: Strep-Flag tagged CRBN (CRBN-SF), Q96SW2 1-442 (protein, human, UniProt Q96SW2 1-442, looked up, not shown: small tags and cut ends)
chain: T2 chain
In the case of B2, the binding [4] is reported as “binds”.

B3: GST-tagged C-terminal intracellular domain of MCT1 (amino acids 444-500) (protein, human, UniProt P53985 444-500, looked up, not shown: a dimerising Fc or GST)
chain: NYRLLAKEQKANEQKKESKEEETSIDVAGKPNEVTKAAESPDQKDTDGGPKEEESPV
B3 was tested, and the binding [5] was “binds”, the binding [6] was “binds” and the binding [7] was “binds”.

B4: FLAG-MCT1, P53985 1-500 (protein, human, UniProt P53985 1-500, looked up, not shown: small tags and cut ends)
chain: T1 chain
With B4 the binding [8] was “binds” and the binding [9] was “binds”.

B5: recombinant GST-CRBN (purified GST-Cereblon), Q96SW2 1-442 (protein, human, UniProt Q96SW2 1-442, looked up, not shown: a dimerising Fc or GST)
chain: T2 chain
modifications: here or on the partner: 35S-labeled
B5 was tested, and the binding [10] was “binds”.
